From patent US20220202610A1, “CONTACT LENS WITH SUSTAINED RELEASE PROPERTY” (priority 2020, published 2022)
At least one structure is not confirmed: it was looked up by name or label, or the drawing left a doubt.

Assay: Release of lens drug (dexamethasone): drug loading, moist heat sterilization and release in saline, HPLC
Type: physicochemical
Settings: 121° C., 30 minutes

## C[C@@H]1C[C@H]2[C@@H]3CCC4=CC(=O)C=C[C@]4(C)[C@@]3(F)[C@@H](O)C[C@]2(C)[C@@]1(O)C(=O)CO [Dexamethasone]
  loss caused by the moist heat sterilization: hardly causes the loss
